Assay [1] deals with native SAP97 (mouse brain) (mouse (endogenous in brain)) (UniProt Q811D0). Nature of the assay: co-IP; whole brain detergent extracts (TNE buffer, 1% Nonidet P-40, 1% Triton-X 100) of adult wild-type and GluA1-/- mice; precipitation with antisera or Fab7, preimmune sera as controls; immunoblot.
Assay [2] deals with myc-tagged SAP97 (UniProt Q62696). Description: co-IP; HEK293 cells co-transfected (1:1) with flag-tagged GluA4 constructs and myc-tagged SAP97; detergent extracts (TNE buffer, 1% Nonidet P-40, 1% Triton-X 100), overnight at 4°C, GammaBind G-Sepharose; immunoblot.
In assay [3] the target is native GluA1 (mouse brain) (mouse (endogenous in brain)) (UniProt P23818). Nature of the assay: co-IP; whole brain detergent extracts (TNE buffer, 1% Nonidet P-40, 1% Triton-X 100) of adult wild-type and GluA1-/- mice; precipitation with antisera or Fab7, preimmune sera as controls; immunoblot. (In general: In western blotting, separated proteins are transferred to a membrane and probed.)

Amino acid sequences for entries named in this document (tags omitted). Residues count along the entry.
UniProt Q811D0: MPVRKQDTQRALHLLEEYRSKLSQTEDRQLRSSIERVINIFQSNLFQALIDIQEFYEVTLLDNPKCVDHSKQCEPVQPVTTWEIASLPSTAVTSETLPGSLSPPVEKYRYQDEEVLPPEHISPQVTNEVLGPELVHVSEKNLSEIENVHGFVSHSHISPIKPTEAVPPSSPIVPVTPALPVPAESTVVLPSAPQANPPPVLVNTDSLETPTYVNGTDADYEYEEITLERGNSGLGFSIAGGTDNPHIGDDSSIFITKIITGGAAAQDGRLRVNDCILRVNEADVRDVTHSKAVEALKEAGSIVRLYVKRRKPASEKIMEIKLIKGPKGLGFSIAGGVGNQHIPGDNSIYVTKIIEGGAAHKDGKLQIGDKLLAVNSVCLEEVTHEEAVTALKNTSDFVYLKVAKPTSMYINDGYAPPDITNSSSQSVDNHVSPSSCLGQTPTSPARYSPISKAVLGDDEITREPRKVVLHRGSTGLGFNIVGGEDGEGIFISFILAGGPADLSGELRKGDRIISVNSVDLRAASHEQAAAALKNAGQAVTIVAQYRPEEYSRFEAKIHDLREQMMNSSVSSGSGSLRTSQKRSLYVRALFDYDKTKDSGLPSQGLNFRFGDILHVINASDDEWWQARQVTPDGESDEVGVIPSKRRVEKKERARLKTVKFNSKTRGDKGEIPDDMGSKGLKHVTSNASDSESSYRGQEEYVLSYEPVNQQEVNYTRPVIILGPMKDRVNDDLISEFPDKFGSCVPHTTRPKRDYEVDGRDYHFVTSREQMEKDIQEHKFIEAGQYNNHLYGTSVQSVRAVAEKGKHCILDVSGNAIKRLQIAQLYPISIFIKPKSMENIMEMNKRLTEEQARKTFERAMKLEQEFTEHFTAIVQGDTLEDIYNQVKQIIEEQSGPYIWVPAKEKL
UniProt Q62696: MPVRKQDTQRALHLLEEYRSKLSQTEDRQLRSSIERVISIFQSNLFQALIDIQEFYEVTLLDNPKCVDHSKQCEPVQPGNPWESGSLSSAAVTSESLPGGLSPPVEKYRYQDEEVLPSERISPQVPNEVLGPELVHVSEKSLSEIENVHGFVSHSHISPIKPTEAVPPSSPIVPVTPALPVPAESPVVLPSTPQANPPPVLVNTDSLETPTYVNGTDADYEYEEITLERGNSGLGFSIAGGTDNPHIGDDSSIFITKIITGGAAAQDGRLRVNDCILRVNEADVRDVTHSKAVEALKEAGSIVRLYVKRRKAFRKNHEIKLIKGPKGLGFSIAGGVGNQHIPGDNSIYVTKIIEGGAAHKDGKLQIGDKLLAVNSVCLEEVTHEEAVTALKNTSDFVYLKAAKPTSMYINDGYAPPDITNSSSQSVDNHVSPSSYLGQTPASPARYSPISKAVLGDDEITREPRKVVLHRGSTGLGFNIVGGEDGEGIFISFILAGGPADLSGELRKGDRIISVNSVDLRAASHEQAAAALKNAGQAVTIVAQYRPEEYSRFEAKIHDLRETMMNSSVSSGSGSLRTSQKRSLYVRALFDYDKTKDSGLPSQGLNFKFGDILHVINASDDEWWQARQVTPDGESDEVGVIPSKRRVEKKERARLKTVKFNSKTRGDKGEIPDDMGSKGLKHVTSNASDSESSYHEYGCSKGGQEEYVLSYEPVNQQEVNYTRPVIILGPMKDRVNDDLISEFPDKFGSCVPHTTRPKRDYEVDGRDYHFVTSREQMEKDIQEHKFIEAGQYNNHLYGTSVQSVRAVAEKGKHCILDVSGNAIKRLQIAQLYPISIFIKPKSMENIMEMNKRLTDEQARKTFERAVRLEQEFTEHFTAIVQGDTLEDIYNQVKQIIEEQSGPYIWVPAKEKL
UniProt P23818, residues 19-907: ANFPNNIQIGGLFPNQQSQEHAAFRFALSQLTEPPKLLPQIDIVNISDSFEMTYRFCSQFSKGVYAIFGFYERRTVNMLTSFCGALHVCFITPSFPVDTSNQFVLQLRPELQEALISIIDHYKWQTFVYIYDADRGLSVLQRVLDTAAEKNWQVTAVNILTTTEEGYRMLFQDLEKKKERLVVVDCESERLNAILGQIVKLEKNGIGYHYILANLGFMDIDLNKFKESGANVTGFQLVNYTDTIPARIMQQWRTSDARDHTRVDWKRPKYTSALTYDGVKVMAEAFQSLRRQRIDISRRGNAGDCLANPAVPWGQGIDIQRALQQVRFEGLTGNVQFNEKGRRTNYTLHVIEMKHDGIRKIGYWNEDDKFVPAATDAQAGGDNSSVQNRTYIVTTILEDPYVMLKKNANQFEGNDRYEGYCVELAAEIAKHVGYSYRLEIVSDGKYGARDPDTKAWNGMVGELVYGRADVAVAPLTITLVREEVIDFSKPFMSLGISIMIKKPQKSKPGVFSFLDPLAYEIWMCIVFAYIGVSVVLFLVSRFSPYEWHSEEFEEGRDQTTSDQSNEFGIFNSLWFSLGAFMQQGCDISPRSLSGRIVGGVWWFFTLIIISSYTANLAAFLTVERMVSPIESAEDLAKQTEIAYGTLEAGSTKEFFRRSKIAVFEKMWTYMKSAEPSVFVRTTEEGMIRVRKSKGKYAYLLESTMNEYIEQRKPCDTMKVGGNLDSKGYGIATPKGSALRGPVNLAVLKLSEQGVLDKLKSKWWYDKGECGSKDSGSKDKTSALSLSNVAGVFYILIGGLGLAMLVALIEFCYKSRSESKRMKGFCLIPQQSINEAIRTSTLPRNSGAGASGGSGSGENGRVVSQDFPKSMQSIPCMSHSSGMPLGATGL
UniProt P19493, residues 21-902: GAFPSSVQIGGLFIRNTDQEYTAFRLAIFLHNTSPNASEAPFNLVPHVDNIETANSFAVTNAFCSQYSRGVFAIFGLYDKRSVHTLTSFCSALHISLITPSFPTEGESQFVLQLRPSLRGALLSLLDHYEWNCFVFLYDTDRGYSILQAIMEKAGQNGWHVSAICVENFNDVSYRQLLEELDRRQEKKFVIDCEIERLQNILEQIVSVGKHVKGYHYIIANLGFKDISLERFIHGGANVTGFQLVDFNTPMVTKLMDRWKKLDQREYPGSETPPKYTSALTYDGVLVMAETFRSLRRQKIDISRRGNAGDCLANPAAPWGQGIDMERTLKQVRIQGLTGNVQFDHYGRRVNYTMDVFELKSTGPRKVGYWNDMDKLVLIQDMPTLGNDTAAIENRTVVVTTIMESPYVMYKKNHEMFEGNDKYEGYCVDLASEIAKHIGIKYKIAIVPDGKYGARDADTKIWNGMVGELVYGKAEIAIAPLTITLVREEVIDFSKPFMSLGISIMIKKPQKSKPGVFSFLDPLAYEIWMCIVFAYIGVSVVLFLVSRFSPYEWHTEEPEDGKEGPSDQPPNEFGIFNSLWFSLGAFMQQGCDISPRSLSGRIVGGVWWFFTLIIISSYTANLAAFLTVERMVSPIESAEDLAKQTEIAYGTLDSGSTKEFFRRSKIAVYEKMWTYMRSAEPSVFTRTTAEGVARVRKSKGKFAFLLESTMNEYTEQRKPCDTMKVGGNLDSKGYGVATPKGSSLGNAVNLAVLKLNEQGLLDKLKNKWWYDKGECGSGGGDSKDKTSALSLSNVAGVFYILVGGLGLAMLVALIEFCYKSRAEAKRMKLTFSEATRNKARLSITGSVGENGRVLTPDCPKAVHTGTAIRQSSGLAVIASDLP
UniProt Q9Z2H5: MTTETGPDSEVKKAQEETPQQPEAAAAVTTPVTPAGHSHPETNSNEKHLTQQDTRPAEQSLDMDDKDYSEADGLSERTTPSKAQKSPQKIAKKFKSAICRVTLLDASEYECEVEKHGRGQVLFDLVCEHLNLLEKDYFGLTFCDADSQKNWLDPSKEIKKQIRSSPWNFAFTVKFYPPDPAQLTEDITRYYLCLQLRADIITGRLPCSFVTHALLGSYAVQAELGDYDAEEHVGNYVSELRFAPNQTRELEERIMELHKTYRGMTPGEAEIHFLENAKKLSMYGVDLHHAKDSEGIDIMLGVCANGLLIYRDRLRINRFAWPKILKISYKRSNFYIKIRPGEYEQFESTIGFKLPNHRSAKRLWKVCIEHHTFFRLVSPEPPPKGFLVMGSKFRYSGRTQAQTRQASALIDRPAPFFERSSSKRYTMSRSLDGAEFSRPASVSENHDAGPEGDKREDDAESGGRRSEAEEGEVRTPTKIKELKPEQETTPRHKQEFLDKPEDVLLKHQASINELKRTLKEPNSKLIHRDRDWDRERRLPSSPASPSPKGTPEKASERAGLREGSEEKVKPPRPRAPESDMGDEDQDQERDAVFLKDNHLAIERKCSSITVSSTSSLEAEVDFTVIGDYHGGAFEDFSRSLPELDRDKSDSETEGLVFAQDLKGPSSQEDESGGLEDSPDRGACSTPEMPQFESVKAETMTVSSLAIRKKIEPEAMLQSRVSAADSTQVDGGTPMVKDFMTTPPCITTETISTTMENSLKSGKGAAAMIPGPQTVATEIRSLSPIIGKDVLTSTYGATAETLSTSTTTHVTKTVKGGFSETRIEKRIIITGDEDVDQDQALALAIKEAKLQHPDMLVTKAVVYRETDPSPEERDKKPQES
UniProt Q9Z2W8, residues 21-902: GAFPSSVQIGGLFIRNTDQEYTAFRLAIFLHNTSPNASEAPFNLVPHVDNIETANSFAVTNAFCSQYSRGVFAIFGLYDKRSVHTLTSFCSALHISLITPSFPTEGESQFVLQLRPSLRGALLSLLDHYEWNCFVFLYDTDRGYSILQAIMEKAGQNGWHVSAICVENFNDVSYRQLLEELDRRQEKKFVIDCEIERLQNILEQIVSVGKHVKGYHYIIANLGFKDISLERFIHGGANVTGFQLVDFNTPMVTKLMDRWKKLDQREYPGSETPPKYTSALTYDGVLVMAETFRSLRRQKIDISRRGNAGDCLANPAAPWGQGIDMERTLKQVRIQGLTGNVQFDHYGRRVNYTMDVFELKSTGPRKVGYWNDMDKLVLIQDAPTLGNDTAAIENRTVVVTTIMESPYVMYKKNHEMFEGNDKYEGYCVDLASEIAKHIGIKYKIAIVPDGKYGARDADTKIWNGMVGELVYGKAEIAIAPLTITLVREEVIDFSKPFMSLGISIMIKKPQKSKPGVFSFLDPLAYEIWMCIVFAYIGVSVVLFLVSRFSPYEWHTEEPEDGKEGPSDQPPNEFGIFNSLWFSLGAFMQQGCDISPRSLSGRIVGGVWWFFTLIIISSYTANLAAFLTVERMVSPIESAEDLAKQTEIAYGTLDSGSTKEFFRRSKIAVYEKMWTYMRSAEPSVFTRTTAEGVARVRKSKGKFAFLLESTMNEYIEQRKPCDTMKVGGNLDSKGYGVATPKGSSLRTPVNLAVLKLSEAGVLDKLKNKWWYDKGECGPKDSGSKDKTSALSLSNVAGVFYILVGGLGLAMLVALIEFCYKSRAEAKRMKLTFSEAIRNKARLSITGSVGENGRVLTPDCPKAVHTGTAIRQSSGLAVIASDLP

Assay [4] addresses T1, dynamin 1 (rat cerebellum) (rat (endogenous in cerebellum)) (UniProt P21575).
T1 sequence: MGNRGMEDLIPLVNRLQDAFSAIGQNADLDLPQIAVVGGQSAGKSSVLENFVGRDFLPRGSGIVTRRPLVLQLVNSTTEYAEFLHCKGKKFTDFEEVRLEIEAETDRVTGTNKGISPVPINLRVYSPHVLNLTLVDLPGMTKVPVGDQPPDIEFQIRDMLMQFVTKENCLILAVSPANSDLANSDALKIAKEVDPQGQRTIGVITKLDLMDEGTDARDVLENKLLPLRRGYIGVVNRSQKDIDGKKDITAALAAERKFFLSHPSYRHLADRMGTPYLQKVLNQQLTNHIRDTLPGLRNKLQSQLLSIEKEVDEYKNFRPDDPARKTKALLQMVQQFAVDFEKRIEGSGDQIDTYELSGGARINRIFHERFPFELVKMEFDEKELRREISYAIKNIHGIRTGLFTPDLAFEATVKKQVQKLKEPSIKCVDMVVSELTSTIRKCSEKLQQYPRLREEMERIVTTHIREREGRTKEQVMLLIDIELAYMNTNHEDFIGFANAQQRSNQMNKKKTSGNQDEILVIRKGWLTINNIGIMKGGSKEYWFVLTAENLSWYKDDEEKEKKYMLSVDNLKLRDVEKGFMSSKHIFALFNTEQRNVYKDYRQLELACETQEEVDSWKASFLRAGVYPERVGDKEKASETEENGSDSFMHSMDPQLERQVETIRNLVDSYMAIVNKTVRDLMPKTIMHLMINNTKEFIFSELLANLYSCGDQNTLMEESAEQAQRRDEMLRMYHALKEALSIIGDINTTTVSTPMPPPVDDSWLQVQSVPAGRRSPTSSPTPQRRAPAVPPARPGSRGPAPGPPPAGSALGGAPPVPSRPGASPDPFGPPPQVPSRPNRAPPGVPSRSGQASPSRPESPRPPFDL
Description: co-IP; rat cerebellar extract immunoprecipitated with a panel of antibodies (anti-ΔP, anti-BDL, Fab7, anti-dynamin); immunoblot for dynamin and GluR4.

Assay [5] has as its target native GluA4 (rat cerebellum) (rat (endogenous in cerebellum)) (UniProt P19493). The description is as above.

Experimental findings from PMC2806832 are described below.

No constants are given. Whether binding was seen depends on the method and setting. Binding seen in cells or lysates may run through a third protein. Some results given as binding are weak or reduced against the parent protein; the word gives no strength.

In the case of “4.1N (mouse brain) (from UniProt Q9Z2H5 1-879)”, in assay [1], the binding entry was “binds”.
Turning to “flag-tagged full-length wild-type GluA4 (from UniProt P19493 21-902) (receptor)”, the binding entry in assay [2] is reported as “no binding”.
Turning to “native GluA4 (mouse brain) (from UniProt Q9Z2W8 21-902) (receptor)”, the binding result in assay [3] was “binds”.
As for “native GluA4 (rat cerebellum) (from UniProt P19493 21-902) (receptor)”, in assay [4], the binding result is reported as “no binding”.

B1: dynamin 1 (rat cerebellum) (protein, UniProt P21575 1-864)
chain: T1 sequence
On to B1, for which the binding entry in assay [5] is on record as “no binding”.
